PubChem BioAssay AID1224827, NIAID – 2016
Screen: 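Retest primary hits on a TNF reporter with six siRNAs per gene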 (follow-up of hits). Cells: RAW264.7 G9 mouse macrophage reporter clone. Knock-down reagent: single siRNA against mouse genes, 100 nM siRNA. Timing: siRNA for 2 days, then LPS about 16 h. Conditions: bacterial lipopolysaccharide (LPS), 10 ng/ml, cells fixed after overnight (about 16 h) stimulation. Measured: 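Imaged nuclear TNF reporter intensity, background removed, scaled per plate and to non-targeting control wells, as z-scores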. Reading the numbers: TNF reporter z-score, mean: higher = stronger Tnf promoter reporter signal; gene median z, three same-vendor siRNAs: higher = stronger Tnf reporter signal for the gene. Hit rule: 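Active siRNA: replicate-mean z-score of 2 or more, or -2 or less; no calls for control wells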.
The whole screen tested about 3,800 reagents; this is a random part of them. About 2,200 of all reagents (57%) were called active. 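Active means a strong reporter change in either direction; calls are per siRNA, not per gene; qiagen siRNAs gave weaker effects.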 Reagents against one gene are numbered here. Not all columns of the deposit are shown.

Against Alyref #1, the entry reads TNF reporter z-score, mean -1.35; gene median z, three same-vendor siRNAs -3.45; inactive.
With knock-down of Alyref #2 the results were TNF reporter z-score, mean -3.45; gene median z, three same-vendor siRNAs -3.45; active.
Depletion of Alyref #3 gave: TNF reporter z-score, mean -4.16; gene median z, three same-vendor siRNAs -3.45; active.
Alyref #4 showed TNF reporter z-score, mean 1.24; gene median z, three same-vendor siRNAs -0.662; inactive.
Alyref #5 scored TNF reporter z-score, mean 0.199; gene median z, three same-vendor siRNAs -0.662; inactive.
For Alyref #6, the values are TNF reporter z-score, mean -2.36; gene median z, three same-vendor siRNAs -0.662; active.
With knock-down of Pdcl3 #1 the results were TNF reporter z-score, mean 1.85; gene median z, three same-vendor siRNAs -2.29; inactive.
Knock-down of Pdcl3 #2 resulted in: TNF reporter z-score, mean -2.63; gene median z, three same-vendor siRNAs -2.29; active.
With knock-down of Pdcl3 #3, the screen gave TNF reporter z-score, mean -3.24; gene median z, three same-vendor siRNAs -2.29; active.
Pdcl3 #4 gave TNF reporter z-score, mean 2.49; gene median z, three same-vendor siRNAs -0.0496; active.
For Pdcl3 #5, the values are TNF reporter z-score, mean -0.0731; gene median z, three same-vendor siRNAs -0.0496; inactive.
Pdcl3 #6 gave TNF reporter z-score, mean -0.789; gene median z, three same-vendor siRNAs -0.0496; inactive.

Entries listed above called active, once more:
Alyref #2: TNF reporter z-score, mean = -3.45; gene median z, three same-vendor siRNAs = -3.45; call = active
Alyref #3: TNF reporter z-score, mean = -4.16; gene median z, three same-vendor siRNAs = -3.45; call = active
Alyref #6: TNF reporter z-score, mean = -2.36; gene median z, three same-vendor siRNAs = -0.662; call = active
Pdcl3 #2: TNF reporter z-score, mean = -2.63; gene median z, three same-vendor siRNAs = -2.29; call = active
Pdcl3 #3: TNF reporter z-score, mean = -3.24; gene median z, three same-vendor siRNAs = -2.29; call = active
Pdcl3 #4: TNF reporter z-score, mean = 2.49; gene median z, three same-vendor siRNAs = -0.0496; call = active

The results go on.
Knock-down of Psma3 #1 came out at: TNF reporter z-score, mean 0.263; gene median z, three same-vendor siRNAs -2.24; inactive.
Psma3 #2 scored TNF reporter z-score, mean -2.24; gene median z, three same-vendor siRNAs -2.24; active.
Against Psma3 #3, the entry reads TNF reporter z-score, mean -3.48; gene median z, three same-vendor siRNAs -2.24; active.
Against Dsg1a #1, the values are TNF reporter z-score, mean 6.34; gene median z, three same-vendor siRNAs 2.02; active.
Dsg1a #2 showed TNF reporter z-score, mean 1.5; gene median z, three same-vendor siRNAs 2.02; inactive.
Dsg1a #3 scored TNF reporter z-score, mean 0.813; gene median z, three same-vendor siRNAs 2.02; inactive.
Against Dsg1a #4, the entry reads TNF reporter z-score, mean 2.32; gene median z, three same-vendor siRNAs 0.364; active.
Depletion of Dsg1a #5 gave: TNF reporter z-score, mean 0.364; gene median z, three same-vendor siRNAs 0.364; inactive.
Against Dsg1a #6, the values are TNF reporter z-score, mean 0.514; gene median z, three same-vendor siRNAs 0.364; inactive.
